Results deposited as PubChem BioAssay AID504774 (Drosophila RNAi Screening Center, 2011).
The screen tested about 23,000 reagents; this is a random part of those with a known target gene and a result. 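Values are quantile-normalised luminescence on an arbitrary scale; higher means more cells surviving MMS.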 Names joined by + are all predicted targets of the reagent.

- Assay: 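Genes required for cells to withstand methyl methanesulphonate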 (primary screen)
- Cell system: Drosophila Kc167 cells
- Knock-down reagent: long dsRNA against Drosophila genes, about 0.25 µg dsRNA per well
- Time to read-out: about 6 days: 3 days knock-down, then 3 days with or without MMS
- Challenge: methyl methanesulphonate 0.004% (w/v) for 3 days after knock-down
- Read-out: 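Viability in wells given MMS, read as ATP luminescence, normalised by quantiles plate by plate and averaged across replicates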
- Scale: mean viability with MMS and viability with MMS: higher = more surviving cells after MMS

gene,DRSC id,mean viability with MMS,"viability with MMS, replicate 1","viability with MMS, replicate 2"
para (paralytic),DRSC19141,3.64e6,4.02e6,4.15e6
para (paralytic),DRSC20360,3.45e6,3.80e6,4.02e6
Sdb (SAXO downstream of blistered),DRSC06272,3.46e6,4.04e6,3.93e6
Sdb (SAXO downstream of blistered),DRSC06273,3.45e6,3.97e6,3.86e6
Sdb (SAXO downstream of blistered),DRSC07155,3.65e6,4.19e6,4.11e6
CG13321,DRSC06358,3.49e6,3.92e6,3.92e6
CG15528,DRSC15065,3.44e6,3.96e6,3.78e6
CG10226,DRSC09715,3.70e6,4.32e6,4.07e6
lbe (ladybird early),DRSC16985,3.64e6,4.18e6,4.06e6
AsnS (Asparagine synthetase),DRSC11468,3.55e6,4.07e6,3.98e6
CG14006,DRSC02338,3.53e6,4.04e6,3.96e6
eIF3f1 (eukaryotic translation initiation factor 3 subunit f1),DRSC12328,3.08e6,3.62e6,3.57e6
CG1265,DRSC08288,3.47e6,3.82e6,4.06e6
Pp2C1 (Protein phosphatase 2C),DRSC18699,3.59e6,3.84e6,4.07e6
Pp2C1 (Protein phosphatase 2C),DRSC23287,3.63e6,3.98e6,4.27e6
CG16989,DRSC18535,3.57e6,4.08e6,4.03e6
CG13912,DRSC08381,3.62e6,4.06e6,4.11e6
Enoph (Enolase-phosphatase),DRSC12201,3.51e6,3.99e6,3.98e6
CG8728,DRSC07251,3.63e6,4.05e6,4.19e6
gro (groucho),DRSC16962,3.51e6,3.90e6,4.06e6
CG8888,DRSC07294,3.58e6,4.15e6,3.96e6
CG8888,DRSC07295,3.47e6,3.80e6,4.02e6
ppk6 (pickpocket 6),DRSC06062,3.43e6,3.88e6,3.87e6
cdm (cadmus),DRSC16213,3.57e6,4.03e6,4.06e6
CG13116,DRSC02214,3.60e6,4.17e6,4.03e6
CG13116,DRSC21945,3.46e6,3.98e6,3.90e6
CG1907,DRSC15399,3.74e6,4.22e6,4.22e6
fz4 (frizzled 4),DRSC18780,3.46e6,3.96e6,3.89e6
Argp (Arginine phosphatase),DRSC16510,3.63e6,4.15e6,4.10e6
CG14342,DRSC00372,3.61e6,4.04e6,4.17e6
Cyp4g1 (Cytochrome P450 4g1),DRSC18459,3.54e6,4.05e6,4.00e6
vir (virilizer),DRSC04377,3.65e6,4.00e6,4.27e6
CG30414,DRSC04372,3.47e6,3.87e6,3.99e6
Nep3 (Neprilysin 3),DRSC20685,3.47e6,4.01e6,3.88e6
CG18420,DRSC01954,3.49e6,3.90e6,4.03e6
RpL3 (Ribosomal protein L3),DRSC16834,2.98e6,3.73e6,3.67e6
GluRIB + CG42509 (retired record),DRSC10258,3.57e6,4.25e6,3.83e6
GluRIB + CG42509 (retired record),DRSC11177,3.54e6,4.15e6,3.87e6
mRpL47 (mitochondrial ribosomal protein L47),DRSC16827,3.81e6,4.25e6,4.20e6
CG5776,DRSC02891,3.80e6,4.27e6,4.36e6
CG33306,DRSC01899,3.52e6,4.14e6,3.86e6
CG13454,DRSC10001,1.77e6,3.98e6,
CG31954,DRSC00580,3.64e6,4.21e6,4.08e6
CR13656 (pseudo),DRSC13705,3.38e6,3.75e6,3.90e6
CR13656 (pseudo),DRSC14656,3.70e6,4.25e6,4.12e6
run (runt),DRSC20584,3.73e6,4.02e6,4.49e6
run (runt),DRSC21515,3.64e6,4.16e6,4.08e6
Neos (Neosin),DRSC11235,3.36e6,3.81e6,3.85e6
timeout,DRSC12950,3.54e6,4.09e6,3.95e6
timeout,DRSC17078,3.43e6,3.99e6,3.77e6
timeout,DRSC17079,3.73e6,4.20e6,4.28e6
timeout,DRSC17080,3.56e6,4.09e6,4.01e6
timeout,DRSC17081,3.51e6,3.84e6,4.12e6
timeout,DRSC21535,3.64e6,4.20e6,4.03e6
CG31245,DRSC15498,3.62e6,4.05e6,4.15e6
Asciz (ASCIZ zinc finger protein),DRSC08421,3.42e6,3.81e6,3.96e6
sand (sandman),DRSC07245,3.78e6,4.16e6,4.21e6
ClC-c (Chloride channel-c),DRSC10499,3.56e6,3.96e6,4.11e6
Dnaaf5 (Dynein axonemal assembly factor 5),DRSC13032,3.37e6,3.85e6,3.78e6
IP3K1 + hpRNA:CR18854,DRSC23313,3.38e6,3.87e6,3.83e6
CG11162,DRSC19391,3.53e6,3.93e6,4.06e6
CG11162,DRSC22538,3.52e6,4.04e6,3.95e6
PICK1 (Protein interacting with C kinase 1),DRSC02936,3.53e6,3.98e6,4.05e6
"SmydA-7 (SET and MYND domain containing, arthropod-specific, member 7)",DRSC07340,3.45e6,3.95e6,3.88e6
Ir62a (Ionotropic receptor 62a),DRSC08250,3.51e6,3.97e6,3.98e6
RhoGAP54D (Rho GTPase activating protein at 54D),DRSC06990,3.44e6,3.88e6,3.89e6
CG42335,DRSC14597,3.71e6,4.36e6,4.06e6
CG42335,DRSC15892,3.61e6,4.02e6,4.17e6
